From article PMC5766103 (PLoS ONE, 2018)
These are yes or no findings as the source states them, for the method shown. Some results given as binding are weak or reduced against the parent protein; the word gives no strength. Where a sequence is shown, tags or fusion partners need not be part of it. Each block holds one binder with its values, some of them ahead of it.

Columns and labels:
Assay in all cases: ELISA; receptor-Fc coated on the plate (IL-17RA-Fc 2 ug/mL, the others 1 ug/mL in PBS); biotinylated cytokine (IL-17A 250 ng/mL; IL-17C, IL-17E, IL-17F 100 ng/mL) pre-incubated 1 h with peptide (0.128 nM to 10,000 nM), then 30 min at RT on the plate; streptavidin-HRP; percent inhibition; both purified
[1] = molecular target: T1, IL-17RB-Fc (UniProt Q9NRM6)
T1 sequence: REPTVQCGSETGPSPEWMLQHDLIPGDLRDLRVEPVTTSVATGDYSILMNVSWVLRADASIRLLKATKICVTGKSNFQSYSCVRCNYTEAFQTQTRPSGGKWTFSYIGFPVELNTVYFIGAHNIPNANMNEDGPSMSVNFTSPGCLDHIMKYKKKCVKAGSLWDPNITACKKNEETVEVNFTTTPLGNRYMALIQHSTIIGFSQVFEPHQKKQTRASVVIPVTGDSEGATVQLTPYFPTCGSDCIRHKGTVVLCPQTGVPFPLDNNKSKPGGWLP

[2] = molecular target: T2, IL-17RE-Fc (UniProt Q8NFR9)
T2 sequence: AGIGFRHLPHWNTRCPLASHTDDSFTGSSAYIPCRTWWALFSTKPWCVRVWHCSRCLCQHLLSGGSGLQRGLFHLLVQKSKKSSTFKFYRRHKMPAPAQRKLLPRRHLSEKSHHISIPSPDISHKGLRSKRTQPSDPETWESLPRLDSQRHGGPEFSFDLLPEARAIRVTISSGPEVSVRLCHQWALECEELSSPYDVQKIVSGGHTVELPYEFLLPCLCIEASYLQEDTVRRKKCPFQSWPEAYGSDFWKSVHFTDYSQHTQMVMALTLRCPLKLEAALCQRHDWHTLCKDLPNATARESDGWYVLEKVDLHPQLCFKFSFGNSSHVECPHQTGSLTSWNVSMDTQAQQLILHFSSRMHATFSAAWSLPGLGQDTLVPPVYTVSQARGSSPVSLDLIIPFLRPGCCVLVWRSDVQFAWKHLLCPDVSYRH

[3] = molecular target: T3, IL-17RC-Fc (UniProt Q8NAC3)
T3 sequence: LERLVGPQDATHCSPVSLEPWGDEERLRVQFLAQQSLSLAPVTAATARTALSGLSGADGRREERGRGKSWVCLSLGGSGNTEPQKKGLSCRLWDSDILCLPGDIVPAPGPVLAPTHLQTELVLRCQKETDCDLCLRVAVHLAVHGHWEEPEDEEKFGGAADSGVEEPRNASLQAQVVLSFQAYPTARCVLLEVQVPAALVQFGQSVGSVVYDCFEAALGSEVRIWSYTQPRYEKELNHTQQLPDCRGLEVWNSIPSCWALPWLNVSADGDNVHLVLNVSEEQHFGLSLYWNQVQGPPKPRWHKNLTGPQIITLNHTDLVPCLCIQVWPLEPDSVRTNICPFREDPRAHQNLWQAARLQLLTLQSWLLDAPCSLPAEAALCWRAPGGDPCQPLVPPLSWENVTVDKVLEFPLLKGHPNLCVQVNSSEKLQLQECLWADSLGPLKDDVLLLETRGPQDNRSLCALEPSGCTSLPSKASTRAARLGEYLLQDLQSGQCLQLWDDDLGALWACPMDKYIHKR

- binding [1]: binds
B1: human IL-17E (#1258-IL; R&D Systems) (ligand, UniProt Q9H293 33-177)
chain: YSHWPSCCPSKGQDTSEELLRWSTVPVPPLEPARPNRHPESCRASEDGPLNSRAISPWRYELDRDLNRLPQDLYHARCLCPHCVSLQTGSHMDPRGNSELLYHNQTVFYRRPCHGEKGTHKGYCLERRLYRVSLACVCVRPRVMG
modifications: biotin (EZ Link NHS-Biotin)

- binding [2]: binds
B2: human IL-17C (#1234-IL; R&D Systems) (ligand, UniProt Q9P0M4 19-197)
chain: HHDPSLRGHPHSHGTPHCYSAEELPLGQAPPHLLARGAKWGQALPVALVSSLEAASHRGRHERPSATTQCPVLRPEEVLEADTHQRSISPWRYRVDTDEDRYPQKLAFAECLCRGCIDARTGRETAALNSVRLLQSLLVLRRRPCSRDGSGLPTPGAFAFHTEFIHVPVGCTCVLPRSV
modifications: biotin (EZ Link NHS-Biotin)

- binding [3]: binds
B3: human IL-17F (#1335-IL; R&D Systems) (ligand, UniProt Q96PD4 31-163)
chain: RKIPKVGHTFFQKPESCPPVPGGSMKLDIGIINENQRVSMSRNIESRSTSPWNYTVTWDPNRYPSEVVQAQCRNLGCINAQGKEDISMNSVPIQQETLVVRRKHQGCSVSFQLEKVLVTVGCTCVTPVIHHVQ
modifications: biotin (EZ Link NHS-Biotin)
